Measured data: PubChem BioAssay AID1259331 (Drosophila RNAi Screening Center, 2017)

Assay: 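Knock-downs that alter ATP level after a high zinc chloride dose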 (primary screen)
Cell system: Drosophila S2R+ cells
Reagents: long dsRNA against Drosophila genes
Time to read-out: 5 days (4 days knock-down, then 1 day zinc)
Conditions: zinc chloride at 15 mM final level for 1 day
Measured: 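Luminescent ATP assay standing in for viability; Z score is the mean over three replicate plates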
Direction: mean Z score: higher = more ATP than other wells, better survival under zinc; ATP luminescence: higher = more ATP, more viable cells
Active means: 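a reagent is called a hit when its Z score is above 1.5 or below -1.5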
Meaning of the calls: active = hit, ATP up or down; inactive = not a hit
Shown is a random part of about 3,100 deposited reagents. Of all reagents, 126 (4.1%) got an active call. 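Calls are per reagent; zinc was so toxic that few knock-downs lowered ATP further, so most hits raise ATP.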 Raw values vary from plate to plate and are shown uncorrected. A number with no mark means an inactive call. Names joined by + are all predicted targets of the reagent. Reagent sequences are not shown. The record does not give: the amount of reagent.

target	amplicon	mean Z score	ATP luminescence, replicate 1	ATP luminescence, replicate 2
Ac13E	DRSC19325	0.414	76393	69352
Ac13E	DRSC27333	-0.331	56705	49778
ihog	DRSC03157	0.0208	54493	58660
ihog	DRSC29581	0.214	65640	63736
VhaAC45RP	DRSC15423	1.09	69664	41753
VhaAC45RP	DRSC26986	0.422	64848	64172
C1GalTA	DRSC03246	-0.4	51989	49057
Eglp4	DRSC04438	1.15	64833	49280
Eglp4	DRSC25991	-0.108	51955	58073
CG8046	DRSC07059	-0.255	29530	28634
Nach	DRSC07478	-0.103	68971	75554
Nach	DRSC39863	-0.0281	55684	60495
gcl	DRSC07623	-0.392	30507	27855
gcl	DRSC27995	-0.196	56173	57734
CG1636	DRSC18111	-0.477	41531	38764
ppk17	DRSC02252	0.943	63067	50686
ppk17	DRSC39748	-0.275	52435	61215
Fie	DRSC08158	-0.291	25206	32702
Fie	DRSC39856	-0.21	50258	62844
CG42816	DRSC11230	-0.0119	76342	63684
nAChRalpha6	DRSC01096	0.0948	41448	46869
nAChRalpha6	DRSC02738	-0.257	48566	56859
MFS15	DRSC06523	-0.489	59079	60941
MFS15	DRSC28274	-0.874	54030	41702
egh	DRSC18771	-0.893	55625	46760
egh	DRSC29898	0.0305	45131	51338
AdipoR	DRSC15767	-0.527	39199	40828
AdipoR	DRSC39443	0.000143	51476	47994
Nrt	DRSC11237	0.746	35716	38873
mthl11	DRSC12779	-0.338	37605	51544
mthl11	DRSC28437	-0.454	55203	53571
rho-5	DRSC26239	0.161	65674	45285
rho-5	DRSC39726	-0.4	56862	52658
Ae2	DRSC08997	-0.251	46280	38071
Ae2	DRSC10969	-0.3	26839	26719
CG7912	DRSC16343	0.0123	63999	68555
wus	DRSC20278	-0.612	38273	38839
wus	DRSC39483	1.2	67989	60855
CG32447	DRSC11732	-0.344	26325	28570
CG32447	DRSC11805	-0.162	73632	60272
kug	DRSC10911	-0.566	27542	28313
Or85e	DRSC16768	0.286	33593	68263
CG5592	DRSC10524	-0.259	79017	60289
CG5592	DRSC39427	0.257	57580	50498
RFeSP	DRSC00702	-0.235	41753	43777
RFeSP	DRSC27607	-0.673	49172	43554
Targ	DRSC06206	3.66 (active)	1.36e5	1.42e5
Zip102B	DRSC26001	0.0459	54664	56791
Zip102B	DRSC39739	-0.0895	56482	58454
mdy	DRSC01559	-0.309	37413	40399
mdy	DRSC02250	-0.83	40793	48457
Or82a	DRSC11996	-1.01	46869	51649
Or82a	DRSC39482	-0.287	41771	48393
Gr61a	DRSC08358	-0.627	62381	60941
Gr61a	DRSC39830	0.146	58854	57659
Vha100-5	DRSC02175	-0.236	51149	36233
Vha100-5	DRSC26439	-0.611	57237	47274
CG30379	DRSC05070	0.506	38856	55745
CG30379	DRSC39783	-0.143	51767	56774
Vha100-2	DRSC14152	0.803	55625	56842
Vha100-2	DRSC29227	0.277	56602	74884
CG18549	DRSC15347	0.612	39041	66463
CG18549	DRSC28847	0.935	76685	74896
Poxm + Ctr1B	DRSC16245	0.139	36456	57905
Poxm + Ctr1B	DRSC39592	-0.429	59637	53087
colt	DRSC00808	-0.552	48732	48097
colt	DRSC29025	-0.0156	62878	59397
CG33110	DRSC16137	0.95	42089	69841
CG33110	DRSC27221	-0.469	40313	60786

A few values from the list:
gcl [DRSC27995], ATP luminescence, replicate 1 → 56173
CG5592 [DRSC39427], ATP luminescence, replicate 1 = 57580
ihog [DRSC29581], mean Z score: 0.214
mdy [DRSC02250], mean Z score → -0.83
